Experimental data taken from PMC9585078.
No constants are given. Whether binding was seen depends on the method and setting. In cells and extracts the contact can be indirect. Some entries that bind do so weakly or less than the wild type. Tags and fused reporters may be left off the sequences shown.

Chains of the proteins cited; added tags and fusions are not shown. Residues count along the entry.
UniProt P40189, residues 23-918: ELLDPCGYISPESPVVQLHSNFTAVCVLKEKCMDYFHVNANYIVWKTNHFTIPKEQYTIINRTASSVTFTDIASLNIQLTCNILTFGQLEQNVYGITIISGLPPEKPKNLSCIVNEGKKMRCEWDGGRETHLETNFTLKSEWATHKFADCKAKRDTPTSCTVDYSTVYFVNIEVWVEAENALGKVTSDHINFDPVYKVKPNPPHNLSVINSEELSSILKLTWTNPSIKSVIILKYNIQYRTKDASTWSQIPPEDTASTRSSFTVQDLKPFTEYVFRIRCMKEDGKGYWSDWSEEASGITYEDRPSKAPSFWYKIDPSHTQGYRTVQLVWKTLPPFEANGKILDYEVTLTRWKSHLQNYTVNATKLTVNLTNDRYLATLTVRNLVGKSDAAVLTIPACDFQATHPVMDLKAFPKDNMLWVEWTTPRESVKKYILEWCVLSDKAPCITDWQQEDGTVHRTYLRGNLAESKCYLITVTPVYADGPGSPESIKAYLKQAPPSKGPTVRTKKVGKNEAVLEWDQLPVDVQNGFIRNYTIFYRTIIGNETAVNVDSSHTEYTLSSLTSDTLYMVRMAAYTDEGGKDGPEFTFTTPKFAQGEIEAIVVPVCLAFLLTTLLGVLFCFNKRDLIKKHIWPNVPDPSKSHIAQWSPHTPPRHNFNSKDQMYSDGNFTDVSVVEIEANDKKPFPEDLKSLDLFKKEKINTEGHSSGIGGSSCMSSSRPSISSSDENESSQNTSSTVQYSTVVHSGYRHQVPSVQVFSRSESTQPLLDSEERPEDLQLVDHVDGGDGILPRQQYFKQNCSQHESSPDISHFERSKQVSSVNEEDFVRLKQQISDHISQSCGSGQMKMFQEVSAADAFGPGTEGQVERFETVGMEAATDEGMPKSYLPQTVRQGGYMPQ

Target: His-tagged GP130 (human (cDNA library of HEK293 cells)) (UniProt P40189)
Assay: co-IP; HEK 293 cells transfected for 48 h with FLAG-tagged PROM1 (full length, deletion mutants or PROM1^GPI-EX1) and GP130-His; reciprocal immunoprecipitation for the full-length pair; NP-40 lysates (25 mM HEPES, 150 mM NaCl, 1% NP-40), 4 °C; also after MβCD cholesterol depletion (interaction not changed)

binding: binds
B1: FLAG-tagged human PROM1 transcript variant 2, full length (1-856) (protein, UniProt O43490-2 20-856)
chain: GGQPSSTDAPKAWNYELPATNYETQDSHKAGPIGILFELVHIFLYVVQPRDFPEDTLRKFLQKAYESKIDYDKIVYYEAGIILCCVLGLLFIILMPLVGYFFCMCRCCNKCGGEMHQRQKENGPFLRKCFAISLLVICIIISIGIFYGFVANHQVRTRIKRSRKLADSNFKDLRTLLNETPEQIKYILAQYNTTKDKAFTDLNSINSVLGGGILDRLRPNIIPVLDEIKSMATAIKETKEALENMNSTLKSLHQQSTQLSSSLTSVKTSLRSSLNDPLCLVHPSSETCNSIRLSLSQLNSNPELRQLPPVDAELDNVNNVLRTDLDGLVQQGYQSLNDIPDRVQRQTTTVVAGIKRVLNSIGSDIDNVTQRLPIQDILSAFSVYVNNTESYIHRNLPTLEEYDSYWWLGGLVICSLLTLIVIFYYLGLLCGVCGYDRHATPTTRGCVSNTGGVFLMVGVGLSFLFCWILMIIVVLTFVFGANVEKLICEPYTSKELFRVLDTPYLLNEDWEYYLSGKLFNKSKMKLTFEQVYSDCKKNRGTYGTLHLQNSFNISEHLNINEHTGSISSELESLKVNLNIFLLGAAGRKNLQDFAACGIDRMNYDSYLAQTGKSPAGVNLLSFAYDLEAKANSLPPGNLRNSLKRDAQTIKTIHQQRVLPIEQSLSTLYQSVKILQRTGNGLLERVTRILASLDFAQNFITNNTSSVIIEETKKYGRTIIGYFEHYLQWIEFSISEKVASCKPVATALDTAVDVFLCSYIIDPLNLFWFGIGKATVFLLPALIFAVKLAKYYRRMDSEDVYDDVETIPMKNMENGNNGYHKDHVYGIHNPVMTSPSQH
